# Record: PubChem BioAssay AID504784 (Drosophila RNAi Screening Center, 2011)
# Aim: 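Fly genes whose silencing alters how much lipid cells keep in droplets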 (primary screen)
# Cell system: Drosophila Kc167 embryonic cells
# Reagents: long dsRNA against Drosophila genes, about 250 ng dsRNA per well
# Timing: 4 days
# Conditions: cells fed 400 µM oleic acid bound to BSA
# Measurement: 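Cells imaged and segmented; ratio of lipid droplet area to nuclear area, log-transformed, then normalised as a B-score over the screen; higher means more stored lipid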
# Direction: droplet/nuclear area B-score: higher = more stored lipid (overstorage)
# The deposit covers about 17,000 reagents; below is an unselected part of those that have a named target and a result. 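Each column is one replicate's B-score; the combined score over replicates was not deposited, so single values may mislead.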 Names joined by + are all predicted targets of the reagent.
Target gene,dsRNA,"droplet/nuclear area B-score, replicate 1","droplet/nuclear area B-score, replicate 2","droplet/nuclear area B-score, replicate 3"
Sara (Smad anchor for receptor activation),DRSC04653,0.166,-0.966,
Dsp1 (Dorsal switch protein 1),DRSC20315,-1.92,-0.186,
Dsp1 (Dorsal switch protein 1),DRSC23078,-0.427,-3.89,
CG11723,DRSC00324,-0.541,0.847,
Coa7 (Cytochrome c oxidase assembly factor 7),DRSC20967,1.3,3.17,
CG11191,DRSC06056,0.84,-1.83,
CG11191,DRSC23224,-1.76,-1.3,
alphaKap4 (alpha Karyopherin-4),DRSC09823,-1.78,0.0243,
CG10344,DRSC04066,0.274,-1.31,
CG32281,DRSC08236,-0.615,-1.17,
CG3609,DRSC00620,1.38,-1.8,
l(2)05287 (lethal (2) 05287),DRSC02151,-1.41,-5.62,
l(2)05287 (lethal (2) 05287),DRSC02152,0.679,0.0381,
CCT4 (Chaperonin containing TCP1 subunit 4),DRSC02865,1.26,-0.53,
CG5498,DRSC11608,0.411,0.0956,-0.502
ZnT33D (Zinc transporter 33D),DRSC02591,0.446,2.31,
Ppat-Dpck,DRSC09744,-0.833,-0.861,
Balat (Beta-alanine transporter),DRSC06852,-0.0937,0.206,
jef (jet fuel),DRSC06198,-0.933,-2.36,
CG3491,DRSC01934,-1.07,-0.699,
CG15322,DRSC20680,-0.111,-0.422,
CG15322,DRSC23023,1.87,1.42,
Dsor1 (Downstream of raf1),DRSC18462,0.468,-1.22,0.416
CG9920,DRSC16578,-0.79,-1.14,
SerRS (Seryl-tRNA synthetase),DRSC00496,0.244,1.78,
Neurochondrin,DRSC12580,1.83,1.71,
P32,DRSC06988,1.67,0.379,
CG33290,DRSC11493,0.11,-0.262,
Vps13B (Vacuolar protein sorting 13B),DRSC15060,0.11,0.856,
Gyc89Da (Guanylyl cyclase at 89Da),DRSC15008,-0.0109,0.814,
sowi (solwind),DRSC12558,0.412,0.435,
CG11635 + spaw,DRSC06075,0.0118,-0.817,
IFT46 (Intraflagellar transport 46),DRSC02462,3.38,-0.0111,
CG5776,DRSC02891,,1.2,
CG32727,DRSC17519,0.119,1.27,
CG8173,DRSC20088,-0.237,0.399,
TwdlT (TweedleT),DRSC16677,-2.26,-0.919,
TwdlT (TweedleT),DRSC21540,-0.334,2.77,
MED15 (Mediator complex subunit 15),DRSC00267,2.68,-0.553,
kek2 (kekkon 2),DRSC03552,2.47,1.54,
PPO3 (Prophenoloxidase 3),DRSC04325,1.03,0.177,
CG8135 + BBIP1,DRSC12739,2.69,1.49,
CG8135 + BBIP1,DRSC16384,-0.719,-1.26,
CG12231,DRSC19445,-0.236,-0.506,
Had1 (beta Hydroxy acid dehydrogenase 1),DRSC20216,-0.306,0.172,
CG9577,DRSC20693,0.52,1.68,
v (vermilion),DRSC20383,0.458,-0.691,0.554
RpL27 (Ribosomal protein L27),DRSC15638,4.08,3.55,
Acn (Acinus),DRSC02062,-2.88,-2.76,
Takl2 (Tak1-like 2),DRSC15650,-1.94,0.371,
mbf1 (multiprotein bridging factor 1),DRSC11365,-0.0712,0.471,0.194
Vps13 (Vacuolar protein sorting 13),DRSC06817,-0.18,-0.721,
"ValRS-m (Valyl-tRNA synthetase, mitochondrial)",DRSC10535,-0.000308,-1.72,
P58IPK,DRSC16404,0.402,-0.00484,
Rbpn-5 (Rabaptin-5),DRSC04440,0.553,1.81,
Elba2 (Early boundary activity 2),DRSC00731,-0.486,-1.53,
NUCB1 (Nucleobindin 1),DRSC22137,0.956,-0.2,
Srp68 (Signal recognition particle 68),DRSC10475,2.47,,
mRpL11 (mitochondrial ribosomal protein L11),DRSC15482,0.711,4.78,
Fancl,DRSC14550,-0.0473,1.87,
CG31111,DRSC14649,1.38,2.47,
MED7 (Mediator complex subunit 7),DRSC16059,-0.28,0.0254,
CG8834,DRSC07283,0.377,1.67,
CG11906,DRSC06096,0.51,-3.84,
VGlut (Vesicular glutamate transporter),DRSC00733,-0.547,-0.509,-1.12
VGlut (Vesicular glutamate transporter),DRSC21821,0.492,-0.0252,
Cmpk (Cytidine/uridine monophosphate kinase 1),DRSC16643,-0.0138,-1.36,
CG32163,DRSC09442,-0.263,-0.678,
CG14104,DRSC10106,-0.694,-0.348,
Cc2d2a (Coiled-coil and C2 domain containing 2A),DRSC06750,-0.0273,-0.625,
Cc2d2a (Coiled-coil and C2 domain containing 2A),DRSC06779,0.363,-0.416,
CG13056,DRSC09937,1.1,-0.000943,
CR33318 (pseudo),DRSC22949,-0.00169,-1.8,
CG31928,DRSC00293,-1.11,-0.353,
Past1 (Putative Achaete Scute Target 1),DRSC16784,-0.375,-1.03,
CG14357,DRSC14820,-0.0341,0.257,
RNASEK (Ribonuclease kappa),DRSC21641,2.28,1.86,
CG8460,DRSC03090,0.361,1.16,
CG4497,DRSC02754,0.754,1.04,
mub (mushroom-body expressed),DRSC11896,0.0465,-1.46,0.696
Drice (Death related ICE-like caspase),DRSC16715,-1.35,8.37,
mv (mauve),DRSC08208,-0.213,0.791,
mv (mauve),DRSC08570,-0.861,-0.775,

Records above whose target name starts with N or n (2):
Target gene,dsRNA,"droplet/nuclear area B-score, replicate 1","droplet/nuclear area B-score, replicate 2","droplet/nuclear area B-score, replicate 3"
Neurochondrin,DRSC12580,1.83,1.71,
NUCB1 (Nucleobindin 1),DRSC22137,0.956,-0.2,
